Experimental data from ChEMBL document CHEMBL1125008 (J Med Chem, 1990).

Target: T1, Serotonin 3 receptor (5HT3) (Mus musculus, UniProt Q9JHJ5+P23979)
T1 sequence (Q9JHJ5 whole entry): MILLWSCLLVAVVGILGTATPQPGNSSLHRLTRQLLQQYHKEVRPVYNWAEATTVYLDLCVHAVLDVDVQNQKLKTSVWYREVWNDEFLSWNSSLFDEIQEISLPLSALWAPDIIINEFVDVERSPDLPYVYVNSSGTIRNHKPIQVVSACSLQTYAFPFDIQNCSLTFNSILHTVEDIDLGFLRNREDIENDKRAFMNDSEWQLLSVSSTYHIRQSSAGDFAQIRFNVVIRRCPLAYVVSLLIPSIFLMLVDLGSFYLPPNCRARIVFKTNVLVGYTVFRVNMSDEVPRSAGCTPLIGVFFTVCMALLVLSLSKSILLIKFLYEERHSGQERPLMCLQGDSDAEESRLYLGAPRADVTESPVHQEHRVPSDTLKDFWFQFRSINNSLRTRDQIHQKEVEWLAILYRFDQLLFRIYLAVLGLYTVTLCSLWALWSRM
T1 sequence (P23979 whole entry): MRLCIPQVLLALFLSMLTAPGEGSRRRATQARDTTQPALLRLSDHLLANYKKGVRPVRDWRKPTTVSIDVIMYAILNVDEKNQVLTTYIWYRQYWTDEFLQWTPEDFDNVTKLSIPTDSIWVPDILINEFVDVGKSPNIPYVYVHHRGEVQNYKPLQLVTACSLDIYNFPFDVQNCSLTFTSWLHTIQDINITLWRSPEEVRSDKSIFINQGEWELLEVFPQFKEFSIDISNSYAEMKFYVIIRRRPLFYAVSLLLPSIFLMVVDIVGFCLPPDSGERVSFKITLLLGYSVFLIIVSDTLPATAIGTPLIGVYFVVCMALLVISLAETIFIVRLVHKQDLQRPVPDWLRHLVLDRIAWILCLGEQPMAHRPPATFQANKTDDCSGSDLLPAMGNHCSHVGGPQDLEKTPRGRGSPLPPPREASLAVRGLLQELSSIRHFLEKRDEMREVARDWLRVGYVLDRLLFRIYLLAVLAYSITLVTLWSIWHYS
Test: The binding affinity was measured for 5-hydroxytryptamine 3 receptor on NG 108-15 cell line of mouse neuroblastoma-glioma cells in presence of [3H]5 radioligand (in vitro)
Assay type: cell-based

Ki: 0.252 µM
Compound: CN1CCN2c3ccccc3Cc3ccccc3C2C1 (stereo unspecified) [MIANSERIN]
